# Reference: paper PMC12590808
# Protein sequences, listed by entry. Tags and fused reporters are not part of them. Lines headed by an entry give the natural chain unless they say otherwise; changes in a name come on top.
# UniProt A2EKE3: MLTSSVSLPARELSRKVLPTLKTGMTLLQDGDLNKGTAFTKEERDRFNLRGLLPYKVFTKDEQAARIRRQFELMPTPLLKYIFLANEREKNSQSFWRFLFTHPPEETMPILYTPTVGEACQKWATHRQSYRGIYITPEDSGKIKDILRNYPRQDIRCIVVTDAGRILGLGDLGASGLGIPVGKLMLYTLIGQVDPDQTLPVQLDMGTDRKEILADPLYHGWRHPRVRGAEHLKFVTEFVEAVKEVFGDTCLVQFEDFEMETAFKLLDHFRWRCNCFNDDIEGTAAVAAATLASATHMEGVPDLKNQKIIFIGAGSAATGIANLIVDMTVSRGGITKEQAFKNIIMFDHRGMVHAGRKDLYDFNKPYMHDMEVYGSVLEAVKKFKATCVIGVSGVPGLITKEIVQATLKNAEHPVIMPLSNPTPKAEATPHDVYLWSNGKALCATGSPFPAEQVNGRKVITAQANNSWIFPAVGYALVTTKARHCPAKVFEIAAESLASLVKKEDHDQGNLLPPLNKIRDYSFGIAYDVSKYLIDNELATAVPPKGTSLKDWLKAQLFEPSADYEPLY
# No constants are given. Whether binding was seen depends on the method and setting. Binding seen in cells or lysates may run through a third protein. A result given as binding can be weak or reduced; the word gives no strength.
# B1: signal peptidase complex subunit 1 (protein, UniProt Q9Y6A9 1-169)
# chain: MARGGDTGCTGPSETSASGAAAIALPGLEGPATDAQCQTLPLTVLKSRSPSPRSLPPALSCPPPQPAMLEHLSSLPTQMDYKGQKLAEQMFQGIILFSAIVGFIYGYVAEQFGWTVYIVMAGFAFSCLLTLPPWPIYRRHPLKWLPVQESSTDDKKPGERKIKRHAKNN
# Target: Trichomonas vaginalis adhesion protein 65 (Trichomonas vaginalis) (UniProt A2EKE3)
# Assay: co-IP; 293 T cells co-transfected with pDsRed-N1-Flag-SPCS1 and pCMV-3HA-TvAP65, harvested after 24 h; anti-HA antibody (mouse IgG as control) on Protein A + G magnetic beads; lysate mixed at room temperature for 2 h; eluate analysed by Western blotting
binder,measurement,value
B1,binding,binds
